Consider 1 compound from PubChem BioAssay AID540253 (National Center for Advancing Translational Sciences (NCATS), 2011).

By UniProt entry, the sequences of proteins in these tests, tags left out.
UniProt O95149, whole entry, looked up: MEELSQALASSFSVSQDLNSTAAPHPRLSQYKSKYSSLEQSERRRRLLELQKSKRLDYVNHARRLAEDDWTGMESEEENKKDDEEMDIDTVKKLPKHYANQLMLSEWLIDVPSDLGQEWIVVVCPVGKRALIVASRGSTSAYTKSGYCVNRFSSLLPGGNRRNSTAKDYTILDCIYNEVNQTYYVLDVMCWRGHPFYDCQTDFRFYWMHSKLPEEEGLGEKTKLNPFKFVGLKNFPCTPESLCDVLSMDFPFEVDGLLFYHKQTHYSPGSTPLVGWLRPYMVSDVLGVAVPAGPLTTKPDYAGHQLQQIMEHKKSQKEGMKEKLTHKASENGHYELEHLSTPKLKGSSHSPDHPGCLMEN
UniProt Q14974, whole entry, looked up: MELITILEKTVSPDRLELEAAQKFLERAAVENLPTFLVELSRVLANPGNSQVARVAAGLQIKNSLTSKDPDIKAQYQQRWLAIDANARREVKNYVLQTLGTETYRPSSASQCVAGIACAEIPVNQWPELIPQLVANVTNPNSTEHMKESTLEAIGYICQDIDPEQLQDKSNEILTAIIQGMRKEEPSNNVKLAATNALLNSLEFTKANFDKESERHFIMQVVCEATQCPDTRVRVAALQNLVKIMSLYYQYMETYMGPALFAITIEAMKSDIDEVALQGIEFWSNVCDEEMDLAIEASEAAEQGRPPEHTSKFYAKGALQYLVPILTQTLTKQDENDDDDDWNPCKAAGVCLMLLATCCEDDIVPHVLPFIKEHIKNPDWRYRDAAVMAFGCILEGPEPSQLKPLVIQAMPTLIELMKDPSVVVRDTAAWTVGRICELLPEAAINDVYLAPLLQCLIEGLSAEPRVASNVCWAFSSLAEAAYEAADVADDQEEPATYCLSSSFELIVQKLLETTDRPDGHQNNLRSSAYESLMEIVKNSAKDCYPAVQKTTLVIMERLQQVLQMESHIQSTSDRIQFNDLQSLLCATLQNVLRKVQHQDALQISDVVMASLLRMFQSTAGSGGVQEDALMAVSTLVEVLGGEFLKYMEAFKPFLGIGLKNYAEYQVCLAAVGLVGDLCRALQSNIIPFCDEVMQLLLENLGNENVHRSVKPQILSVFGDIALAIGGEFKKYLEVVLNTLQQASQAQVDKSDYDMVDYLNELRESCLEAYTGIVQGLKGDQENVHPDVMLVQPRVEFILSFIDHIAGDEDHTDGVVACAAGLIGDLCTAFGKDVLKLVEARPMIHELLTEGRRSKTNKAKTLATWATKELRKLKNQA

What follows is the remainder of the data, with few or none of the hits. Records with an inconclusive call do not appear. Activity calls are given as the source filed them. The call rests on the fitted dose curve.

The assay addresses Snurportin-1 (Homo sapiens) + GTP-binding nuclear protein Ran (Homo sapiens) + Importin subunit beta-1 (Homo sapiens) (UniProt O95149+P62826+Q14974). Kind of assay: qHTS Assay for Inhibitors of RanGTP induced Rango (Ran-regulated importin-beta cargo) - Importin beta complex dissociation. Further: % of control where 0% means no effect; nearly all actives have a fitted effect of over 45% in size. The settings on record: Biochemical FRET Rango-importin beta; at 46.1 µM (top of the series). An excerpt: NIH Molecular Libraries Probe Production Centers Network [MLPCN] NIH Chemical Genomics Center [NCGC] MLPCN Grant: R03 MH090808-01A1 Assay Submitter (PI): Petr Kalab NCGC Assay Overview: The small GTPase Ran regulates transport of macromolecules between the nucleus and the cytoplasm (nuclear transport) and has important functions in mitotic spindle assembly, nuclear envelope (NE) formation and nuclear pore complex (NPC) assembly. RanGTP gradient is thought to promote spindle assembly by providing a spatial clue to microtubule nucleation and Aurora A activation. Because the localized release and binding of importin alpha cargos relays this spatial clue to SAFs, inhibitors of the Rango - importin beta complex can then be used in further understanding their role in cell cycle specifically in mitosis progression. […] The assay used a fluorescence resonance energy transfer (FRET) Rango biosensor that contains the IBB of human snurportin 1 flanked by yellow fluorescent protein (EYFP) at the amino terminus and cerulean CFP10 at the carboxy terminus. […] FRET readings were obtained at two time points. FRET reading prior to importin beta addition (pre-read) were used flag potential compound interference; FRET reading after importin beta addition (post-read) were used to identify inhibitors. […]
Turning to `O=c1ccc2ccc(OCc3ccccc3)cc2o1`, the activity change, negative = inhibition was inactive: -11.3%.
